According to paper PMC5240148:
No constants are given. Whether binding was seen depends on the method and setting. In cells and extracts the contact can be indirect. Some results given as binding are weak or reduced against the parent protein; the word gives no strength. For some of these results: Tags and fused reporters may be left off the sequences shown.

Protein sequences, listed by entry. Tags and fused reporters are not part of them.
UniProt Q9JIF0: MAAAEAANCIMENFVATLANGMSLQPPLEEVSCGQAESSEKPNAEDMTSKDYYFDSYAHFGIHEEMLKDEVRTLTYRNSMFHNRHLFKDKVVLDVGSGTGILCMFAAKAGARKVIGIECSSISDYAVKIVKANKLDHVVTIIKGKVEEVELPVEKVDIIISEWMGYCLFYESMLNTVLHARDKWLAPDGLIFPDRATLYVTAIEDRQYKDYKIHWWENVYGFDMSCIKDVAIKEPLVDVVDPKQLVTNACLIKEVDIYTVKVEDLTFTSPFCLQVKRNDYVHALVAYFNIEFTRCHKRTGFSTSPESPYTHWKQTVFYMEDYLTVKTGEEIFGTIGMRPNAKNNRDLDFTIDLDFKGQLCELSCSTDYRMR
UniProt Q99873: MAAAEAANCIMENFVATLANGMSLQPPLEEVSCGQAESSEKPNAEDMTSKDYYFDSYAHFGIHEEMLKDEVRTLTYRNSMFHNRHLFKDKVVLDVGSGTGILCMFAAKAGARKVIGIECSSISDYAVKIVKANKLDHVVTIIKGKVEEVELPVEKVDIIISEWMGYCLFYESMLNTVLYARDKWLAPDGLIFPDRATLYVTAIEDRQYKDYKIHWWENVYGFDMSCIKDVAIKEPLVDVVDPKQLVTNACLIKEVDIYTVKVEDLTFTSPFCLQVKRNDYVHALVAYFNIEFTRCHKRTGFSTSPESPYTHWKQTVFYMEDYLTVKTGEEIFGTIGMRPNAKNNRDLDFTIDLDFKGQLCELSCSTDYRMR

Columns and labels:
[1] = molecular target: T1, FLAG-tagged CIITA (class II transactivator) (UniProt P33076); experiment: co-IP; HEK293 cells transfected with GFP-PRMT1 with or without FLAG-CIITA; whole cell lysates in RIPA buffer (50 mM Tris pH7.4, 150 mM NaCl, 1% Triton X-100); FLAG-conjugated beads (M2) overnight, eluted with 3X FLAG peptide; blot with anti-FLAG or anti-GFP
T1 sequence: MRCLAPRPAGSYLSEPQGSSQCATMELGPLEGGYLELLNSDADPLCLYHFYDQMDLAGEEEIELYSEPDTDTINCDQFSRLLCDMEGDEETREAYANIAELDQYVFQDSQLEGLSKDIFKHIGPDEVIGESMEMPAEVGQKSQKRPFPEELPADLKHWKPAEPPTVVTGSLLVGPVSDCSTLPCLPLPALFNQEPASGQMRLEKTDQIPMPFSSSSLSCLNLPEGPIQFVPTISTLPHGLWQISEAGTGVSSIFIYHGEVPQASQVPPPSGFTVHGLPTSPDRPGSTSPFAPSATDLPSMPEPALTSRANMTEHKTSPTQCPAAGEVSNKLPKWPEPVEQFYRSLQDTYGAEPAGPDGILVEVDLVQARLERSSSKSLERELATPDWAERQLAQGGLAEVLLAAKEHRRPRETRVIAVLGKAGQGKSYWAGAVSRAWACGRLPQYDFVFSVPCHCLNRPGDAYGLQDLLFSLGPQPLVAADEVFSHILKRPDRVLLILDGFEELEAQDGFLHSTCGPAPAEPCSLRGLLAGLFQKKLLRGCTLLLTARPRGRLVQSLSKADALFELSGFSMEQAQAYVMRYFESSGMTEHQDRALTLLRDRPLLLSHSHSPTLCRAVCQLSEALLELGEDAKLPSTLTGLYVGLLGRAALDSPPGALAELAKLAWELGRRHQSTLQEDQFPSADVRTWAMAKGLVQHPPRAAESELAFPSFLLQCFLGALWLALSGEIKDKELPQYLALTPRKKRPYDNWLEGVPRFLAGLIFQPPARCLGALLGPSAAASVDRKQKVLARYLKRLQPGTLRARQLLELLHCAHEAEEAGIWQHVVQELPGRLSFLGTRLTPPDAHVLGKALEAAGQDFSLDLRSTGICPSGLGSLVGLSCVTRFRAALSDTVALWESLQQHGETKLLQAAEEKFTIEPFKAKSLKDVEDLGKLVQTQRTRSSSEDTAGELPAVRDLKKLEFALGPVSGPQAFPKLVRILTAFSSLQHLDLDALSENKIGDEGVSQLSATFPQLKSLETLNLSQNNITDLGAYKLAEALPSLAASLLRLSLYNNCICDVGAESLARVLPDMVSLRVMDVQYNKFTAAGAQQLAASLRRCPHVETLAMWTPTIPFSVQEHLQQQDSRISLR

[2] = molecular target: T2, endogenous CIITA (class II transactivator) of mouse macrophage cells (RAW264) (mouse (endogenous in RAW264)) (UniProt P79621); experiment: co-IP; endogenous proteins; RAW264 cells treated with IFN-γ for 24 hours; whole cell lysates immunoprecipitated with anti-CIITA (control IgG beside it)
T2 sequence: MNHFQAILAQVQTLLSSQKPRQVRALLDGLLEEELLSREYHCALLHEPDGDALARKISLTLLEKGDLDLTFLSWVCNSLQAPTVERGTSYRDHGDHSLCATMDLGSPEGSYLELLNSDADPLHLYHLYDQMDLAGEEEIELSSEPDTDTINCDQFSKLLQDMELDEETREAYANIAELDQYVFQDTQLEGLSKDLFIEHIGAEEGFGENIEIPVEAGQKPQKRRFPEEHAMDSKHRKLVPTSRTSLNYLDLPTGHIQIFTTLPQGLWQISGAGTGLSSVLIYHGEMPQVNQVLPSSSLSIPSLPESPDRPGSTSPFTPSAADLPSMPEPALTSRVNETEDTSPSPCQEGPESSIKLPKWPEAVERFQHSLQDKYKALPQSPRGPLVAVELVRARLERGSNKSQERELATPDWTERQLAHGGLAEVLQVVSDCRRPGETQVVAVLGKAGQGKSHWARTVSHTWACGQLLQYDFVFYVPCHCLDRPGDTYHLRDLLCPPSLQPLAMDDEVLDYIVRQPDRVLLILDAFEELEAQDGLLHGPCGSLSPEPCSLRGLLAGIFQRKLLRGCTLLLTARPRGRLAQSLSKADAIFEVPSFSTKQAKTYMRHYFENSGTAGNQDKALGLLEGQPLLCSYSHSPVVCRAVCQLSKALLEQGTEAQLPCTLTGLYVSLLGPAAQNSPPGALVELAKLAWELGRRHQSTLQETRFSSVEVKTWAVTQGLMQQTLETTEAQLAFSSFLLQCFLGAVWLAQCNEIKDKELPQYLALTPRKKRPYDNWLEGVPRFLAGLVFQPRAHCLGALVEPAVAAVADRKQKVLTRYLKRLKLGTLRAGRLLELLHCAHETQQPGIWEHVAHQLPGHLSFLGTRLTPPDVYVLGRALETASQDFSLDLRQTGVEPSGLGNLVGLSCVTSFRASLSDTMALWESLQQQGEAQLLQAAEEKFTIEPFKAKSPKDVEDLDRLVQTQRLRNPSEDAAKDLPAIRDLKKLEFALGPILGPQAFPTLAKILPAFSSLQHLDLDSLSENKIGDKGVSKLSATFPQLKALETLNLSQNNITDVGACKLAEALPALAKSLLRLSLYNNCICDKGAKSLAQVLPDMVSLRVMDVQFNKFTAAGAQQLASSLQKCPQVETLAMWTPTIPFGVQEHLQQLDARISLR

[3] = molecular target: endogenous PRMT1 (protein arginine methyltransferase 1) of mouse macrophage cells (RAW264) (mouse (endogenous in RAW264)) (UniProt Q9JIF0); experiment: co-IP; endogenous proteins; RAW264 cells treated with IFN-γ for 24 hours; whole cell lysates immunoprecipitated with anti-PRMT1 (control IgG beside it)
[4] = molecular target: GFP-tagged PRMT1 (protein arginine methyltransferase 1) (UniProt Q99873); experiment: co-IP; reciprocal: HEK293 cells transfected with FLAG-CIITA with or without GFP-PRMT1; immunoprecipitation with anti-GFP; blot with anti-FLAG or anti-GFP

GFP-tagged PRMT1 (protein arginine methyltransferase 1) (from UniProt Q99873 1-371) (enzyme)
binding [1]: binds

endogenous PRMT1 (protein arginine methyltransferase 1) of mouse macrophage cells (RAW264) (from UniProt Q9JIF0 1-371) (enzyme)
binding [2]: binds

B1: endogenous CIITA (class II transactivator) of mouse macrophage cells (RAW264) (protein, UniProt P79621 1-1155)
chain: MNHFQAILAQVQTLLSSQKPRQVRALLDGLLEEELLSREYHCALLHEPDGDALARKISLTLLEKGDLDLTFLSWVCNSLQAPTVERGTSYRDHGDHSLCATMDLGSPEGSYLELLNSDADPLHLYHLYDQMDLAGEEEIELSSEPDTDTINCDQFSKLLQDMELDEETREAYANIAELDQYVFQDTQLEGLSKDLFIEHIGAEEGFGENIEIPVEAGQKPQKRRFPEEHAMDSKHRKLVPTSRTSLNYLDLPTGHIQIFTTLPQGLWQISGAGTGLSSVLIYHGEMPQVNQVLPSSSLSIPSLPESPDRPGSTSPFTPSAADLPSMPEPALTSRVNETEDTSPSPCQEGPESSIKLPKWPEAVERFQHSLQDKYKALPQSPRGPLVAVELVRARLERGSNKSQERELATPDWTERQLAHGGLAEVLQVVSDCRRPGETQVVAVLGKAGQGKSHWARTVSHTWACGQLLQYDFVFYVPCHCLDRPGDTYHLRDLLCPPSLQPLAMDDEVLDYIVRQPDRVLLILDAFEELEAQDGLLHGPCGSLSPEPCSLRGLLAGIFQRKLLRGCTLLLTARPRGRLAQSLSKADAIFEVPSFSTKQAKTYMRHYFENSGTAGNQDKALGLLEGQPLLCSYSHSPVVCRAVCQLSKALLEQGTEAQLPCTLTGLYVSLLGPAAQNSPPGALVELAKLAWELGRRHQSTLQETRFSSVEVKTWAVTQGLMQQTLETTEAQLAFSSFLLQCFLGAVWLAQCNEIKDKELPQYLALTPRKKRPYDNWLEGVPRFLAGLVFQPRAHCLGALVEPAVAAVADRKQKVLTRYLKRLKLGTLRAGRLLELLHCAHETQQPGIWEHVAHQLPGHLSFLGTRLTPPDVYVLGRALETASQDFSLDLRQTGVEPSGLGNLVGLSCVTSFRASLSDTMALWESLQQQGEAQLLQAAEEKFTIEPFKAKSPKDVEDLDRLVQTQRLRNPSEDAAKDLPAIRDLKKLEFALGPILGPQAFPTLAKILPAFSSLQHLDLDSLSENKIGDKGVSKLSATFPQLKALETLNLSQNNITDVGACKLAEALPALAKSLLRLSLYNNCICDKGAKSLAQVLPDMVSLRVMDVQFNKFTAAGAQQLASSLQKCPQVETLAMWTPTIPFGVQEHLQQLDARISLR
binding [3]: binds

B2: FLAG-tagged CIITA (class II transactivator) (protein, UniProt P33076 1-1130)
chain: MRCLAPRPAGSYLSEPQGSSQCATMELGPLEGGYLELLNSDADPLCLYHFYDQMDLAGEEEIELYSEPDTDTINCDQFSRLLCDMEGDEETREAYANIAELDQYVFQDSQLEGLSKDIFKHIGPDEVIGESMEMPAEVGQKSQKRPFPEELPADLKHWKPAEPPTVVTGSLLVGPVSDCSTLPCLPLPALFNQEPASGQMRLEKTDQIPMPFSSSSLSCLNLPEGPIQFVPTISTLPHGLWQISEAGTGVSSIFIYHGEVPQASQVPPPSGFTVHGLPTSPDRPGSTSPFAPSATDLPSMPEPALTSRANMTEHKTSPTQCPAAGEVSNKLPKWPEPVEQFYRSLQDTYGAEPAGPDGILVEVDLVQARLERSSSKSLERELATPDWAERQLAQGGLAEVLLAAKEHRRPRETRVIAVLGKAGQGKSYWAGAVSRAWACGRLPQYDFVFSVPCHCLNRPGDAYGLQDLLFSLGPQPLVAADEVFSHILKRPDRVLLILDGFEELEAQDGFLHSTCGPAPAEPCSLRGLLAGLFQKKLLRGCTLLLTARPRGRLVQSLSKADALFELSGFSMEQAQAYVMRYFESSGMTEHQDRALTLLRDRPLLLSHSHSPTLCRAVCQLSEALLELGEDAKLPSTLTGLYVGLLGRAALDSPPGALAELAKLAWELGRRHQSTLQEDQFPSADVRTWAMAKGLVQHPPRAAESELAFPSFLLQCFLGALWLALSGEIKDKELPQYLALTPRKKRPYDNWLEGVPRFLAGLIFQPPARCLGALLGPSAAASVDRKQKVLARYLKRLQPGTLRARQLLELLHCAHEAEEAGIWQHVVQELPGRLSFLGTRLTPPDAHVLGKALEAAGQDFSLDLRSTGICPSGLGSLVGLSCVTRFRAALSDTVALWESLQQHGETKLLQAAEEKFTIEPFKAKSLKDVEDLGKLVQTQRTRSSSEDTAGELPAVRDLKKLEFALGPVSGPQAFPKLVRILTAFSSLQHLDLDALSENKIGDEGVSQLSATFPQLKSLETLNLSQNNITDLGAYKLAEALPSLAASLLRLSLYNNCICDVGAESLARVLPDMVSLRVMDVQYNKFTAAGAQQLAASLRRCPHVETLAMWTPTIPFSVQEHLQQQDSRISLR
binding [4]: binds
